Results are given in words; binding and its absence hold for the method and conditions named. Binding seen in cells or lysates may run through a third protein. Some entries that bind do so weakly or less than the wild type.
Tests used:
Assay in all cases: co-IP; endogenous proteins; antibody against the bait crosslinked to Protein A beads, incubated with NT2 nuclear lysate with 250 U/mL benzonase at 4 °C overnight, washed five times in Buffer C100 with 0.02% Nonidet P-40; eluate analysed by immunoblotting
[1] = biological target: PCGF1 (human (endogenous in NT2)) (UniProt Q9BSM1)
[2] = biological target: T1, PCGF2 (human (endogenous in NT2)) (UniProt P35227)
T1 sequence: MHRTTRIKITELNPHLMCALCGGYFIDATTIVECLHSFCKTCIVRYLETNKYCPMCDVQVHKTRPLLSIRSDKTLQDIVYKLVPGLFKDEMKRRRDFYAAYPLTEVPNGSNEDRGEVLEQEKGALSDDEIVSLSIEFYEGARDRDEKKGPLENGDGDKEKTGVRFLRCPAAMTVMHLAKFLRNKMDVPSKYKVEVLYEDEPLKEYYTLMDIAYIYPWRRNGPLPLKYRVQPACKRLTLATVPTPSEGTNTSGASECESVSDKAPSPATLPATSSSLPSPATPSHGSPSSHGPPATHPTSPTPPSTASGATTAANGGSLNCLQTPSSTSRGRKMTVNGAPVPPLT

By UniProt entry, the sequences of proteins in these tests, tags left out.
UniProt Q9BSM1: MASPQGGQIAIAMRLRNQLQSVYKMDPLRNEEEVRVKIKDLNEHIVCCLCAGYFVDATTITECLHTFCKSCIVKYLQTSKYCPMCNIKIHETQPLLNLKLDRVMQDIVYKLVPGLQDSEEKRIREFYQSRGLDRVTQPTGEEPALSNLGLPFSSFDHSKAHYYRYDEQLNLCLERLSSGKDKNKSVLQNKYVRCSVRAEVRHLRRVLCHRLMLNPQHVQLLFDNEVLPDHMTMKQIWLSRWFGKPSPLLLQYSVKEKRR
UniProt P35226: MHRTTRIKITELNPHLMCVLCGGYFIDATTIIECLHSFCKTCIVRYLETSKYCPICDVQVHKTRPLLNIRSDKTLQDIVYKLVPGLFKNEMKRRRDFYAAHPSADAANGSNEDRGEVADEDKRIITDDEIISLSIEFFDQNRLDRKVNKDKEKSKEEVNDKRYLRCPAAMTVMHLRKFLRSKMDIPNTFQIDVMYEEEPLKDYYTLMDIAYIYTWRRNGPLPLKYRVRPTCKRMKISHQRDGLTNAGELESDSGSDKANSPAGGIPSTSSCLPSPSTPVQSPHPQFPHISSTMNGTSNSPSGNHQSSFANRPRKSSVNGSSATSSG
UniProt Q06587: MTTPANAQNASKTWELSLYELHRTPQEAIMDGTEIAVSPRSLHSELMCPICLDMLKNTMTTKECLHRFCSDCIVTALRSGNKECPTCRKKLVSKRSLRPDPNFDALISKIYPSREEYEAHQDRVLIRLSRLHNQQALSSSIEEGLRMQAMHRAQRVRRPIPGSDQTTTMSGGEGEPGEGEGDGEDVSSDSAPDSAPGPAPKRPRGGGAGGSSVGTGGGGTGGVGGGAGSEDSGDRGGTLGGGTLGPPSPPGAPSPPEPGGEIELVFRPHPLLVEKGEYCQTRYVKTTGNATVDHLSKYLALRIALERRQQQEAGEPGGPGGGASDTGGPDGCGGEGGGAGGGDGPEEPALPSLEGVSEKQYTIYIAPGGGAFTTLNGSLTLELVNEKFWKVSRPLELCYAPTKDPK
UniProt Q99496: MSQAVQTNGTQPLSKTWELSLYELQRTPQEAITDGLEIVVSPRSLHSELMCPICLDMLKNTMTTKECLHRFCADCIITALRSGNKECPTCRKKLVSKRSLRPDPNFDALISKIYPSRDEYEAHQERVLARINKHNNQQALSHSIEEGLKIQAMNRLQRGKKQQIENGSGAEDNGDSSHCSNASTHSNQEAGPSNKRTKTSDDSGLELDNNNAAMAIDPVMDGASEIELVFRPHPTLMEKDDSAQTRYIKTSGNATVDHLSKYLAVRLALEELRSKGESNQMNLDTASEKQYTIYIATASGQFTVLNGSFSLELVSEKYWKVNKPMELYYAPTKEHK

[3] = biological target: PCGF4/BMI1 (human (endogenous in NT2)) (UniProt P35226)

Substance | binding [1] | binding [2] | binding [3]
RING1A (from UniProt Q06587 1-406) | binds | binds | binds
RNF2/RING1B (from UniProt Q99496 1-336) | – | binds | –

— article PMC11432245
